Reference: patent US6500647 (MOGAM BIOTECHNOLOGY RESEARCH INSTITUTE, dated 2002)
These are yes or no findings as the source states them, for the method shown. Some binding calls cover weakened binding; strength is not graded here.

Sequences of proteins named here, by UniProt entry; tags and fusion partners are left off. Residues count along the entry.
UniProt P25961, residues 27-591: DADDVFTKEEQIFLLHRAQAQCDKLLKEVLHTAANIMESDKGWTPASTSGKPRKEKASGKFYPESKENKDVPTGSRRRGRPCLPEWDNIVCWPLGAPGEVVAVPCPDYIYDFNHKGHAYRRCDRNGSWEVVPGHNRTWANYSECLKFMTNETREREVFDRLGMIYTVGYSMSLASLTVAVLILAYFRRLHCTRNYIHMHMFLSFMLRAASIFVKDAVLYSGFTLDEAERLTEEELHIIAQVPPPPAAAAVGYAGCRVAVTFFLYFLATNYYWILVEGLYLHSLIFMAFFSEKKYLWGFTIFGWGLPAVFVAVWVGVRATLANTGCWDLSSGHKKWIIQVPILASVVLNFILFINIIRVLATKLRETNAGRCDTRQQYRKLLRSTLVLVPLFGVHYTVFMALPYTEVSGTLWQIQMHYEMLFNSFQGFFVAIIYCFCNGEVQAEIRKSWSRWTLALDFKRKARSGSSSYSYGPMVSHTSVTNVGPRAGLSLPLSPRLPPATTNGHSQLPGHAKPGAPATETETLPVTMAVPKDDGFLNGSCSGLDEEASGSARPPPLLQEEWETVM

Columns and labels:
[1] = target: PTH receptor of UMR106 cell line (rat osteoblast-like osteosarcoma cell line) (rat) (UniProt P25961); assay: radioligand competition on UMR106 cells
[2] = target: PTH receptor of UMR106 cell line (rat osteoblast-like osteosarcoma cell line) (rat) (UniProt P25961); assay: radioligand competition on UMR106 cells (summary of Example 10)

binding [1]: binds
binding [2]: binds
B1: human recombinant PTH (rhPTH (1-84)) (ligand, UniProt P01270 32-115, looked up)
chain: SVSEIQLMHNLGKHLNSMERVEWLRKKLQDVHNFVALGAPLAPRDAGSQRPRKKEDNVLVESHEKSLGEADKADVNVLTKAKSQ
notes: mature; also called recombinant human PTH; purified human PTH
